Reference: article PMC5150261
These are yes or no findings as the source states them, for the method shown. In cells and extracts the contact can be indirect. Binding calls can cover weak binding; strength is not graded here. For part of these data: Tags and fused reporters may be left off the sequences shown.

T1: FLAG-VRK3 (in SH-SY5Y cells) (not stated (human or mouse cDNA cloned)) (UniProt Q8K3G5)
T1 sequence: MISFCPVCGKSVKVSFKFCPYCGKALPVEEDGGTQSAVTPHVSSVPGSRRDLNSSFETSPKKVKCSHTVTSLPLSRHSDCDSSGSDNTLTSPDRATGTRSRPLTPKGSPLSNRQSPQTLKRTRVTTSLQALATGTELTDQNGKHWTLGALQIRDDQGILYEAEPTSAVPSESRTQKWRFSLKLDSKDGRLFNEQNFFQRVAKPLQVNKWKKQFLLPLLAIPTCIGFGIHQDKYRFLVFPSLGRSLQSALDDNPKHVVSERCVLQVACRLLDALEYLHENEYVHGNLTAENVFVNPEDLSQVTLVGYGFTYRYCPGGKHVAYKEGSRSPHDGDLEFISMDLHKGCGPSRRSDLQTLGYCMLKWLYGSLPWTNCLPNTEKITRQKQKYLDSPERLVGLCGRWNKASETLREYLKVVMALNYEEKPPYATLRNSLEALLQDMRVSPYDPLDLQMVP

B1: endogenous VRK3 (vaccinia-related kinase 3) (protein, UniProt Q8IV63 1-474)
chain: MISFCPDCGKSIQAAFKFCPYCGNSLPVEEHVGSQTFVNPHVSSFQGSKRGLNSSFETSPKKVKWSSTVTSPRLSLFSDGDSSESEDTLSSSERSKGSGSRPPTPKSSPQKTRKSPQVTRGSPQKTSCSPQKTRQSPQTLKRSRVTTSLEALPTGTVLTDKSGRQWKLKSFQTRDNQGILYEAAPTSTLTCDSGPQKQKFSLKLDAKDGRLFNEQNFFQRAAKPLQVNKWKKLYSTPLLAIPTCMGFGVHQDKYRFLVLPSLGRSLQSALDVSPKHVLSERSVLQVACRLLDALEFLHENEYVHGNVTAENIFVDPEDQSQVTLAGYGFAFRYCPSGKHVAYVEGSRSPHEGDLEFISMDLHKGCGPSRRSDLQSLGYCMLKWLYGFLPWTNCLPNTEDIMKQKQKFVDKPGPFVGPCGHWIRPSETLQKYLKVVMALTYEEKPPYAMLRNNLEALLQDLRVSPYDPIGLPMVP

Columns and labels:
[1] = biological target: T1, FLAG-VRK3 (in SH-SY5Y cells) (not stated (human or mouse cDNA cloned)); experiment: co-IP; HA-tagged full length HSP70 or its fragments expressed along with FLAG-VRK3 in SH-SY5Y cells
[2] = biological target: FLAG-HSP70 (stress-inducible HSP70 form, HSP70A1A) (not stated (human or mouse cDNA cloned)); experiment: co-IP; anti-FLAG immunoprecipitation from SH-SY5Y cell lysates expressing FLAG-HSP70; endogenous VHR and VRK3 detected

Molecule	binding [1]	binding [2]
HA-tagged HSP70 F2 fragment (amino acids 381-537) (domain or fragment)	binds	
HA-tagged full length HSP70	binds	
B1		binds
